From PMC5026473
These are yes or no findings as the source states them, for the method shown. In cells and extracts the contact can be indirect. These calls come from enrichment with a bait or labelling near it, and not all partners need be listed.

The chains behind the UniProt entries cited, without tags or fusion partners.
UniProt Q03280: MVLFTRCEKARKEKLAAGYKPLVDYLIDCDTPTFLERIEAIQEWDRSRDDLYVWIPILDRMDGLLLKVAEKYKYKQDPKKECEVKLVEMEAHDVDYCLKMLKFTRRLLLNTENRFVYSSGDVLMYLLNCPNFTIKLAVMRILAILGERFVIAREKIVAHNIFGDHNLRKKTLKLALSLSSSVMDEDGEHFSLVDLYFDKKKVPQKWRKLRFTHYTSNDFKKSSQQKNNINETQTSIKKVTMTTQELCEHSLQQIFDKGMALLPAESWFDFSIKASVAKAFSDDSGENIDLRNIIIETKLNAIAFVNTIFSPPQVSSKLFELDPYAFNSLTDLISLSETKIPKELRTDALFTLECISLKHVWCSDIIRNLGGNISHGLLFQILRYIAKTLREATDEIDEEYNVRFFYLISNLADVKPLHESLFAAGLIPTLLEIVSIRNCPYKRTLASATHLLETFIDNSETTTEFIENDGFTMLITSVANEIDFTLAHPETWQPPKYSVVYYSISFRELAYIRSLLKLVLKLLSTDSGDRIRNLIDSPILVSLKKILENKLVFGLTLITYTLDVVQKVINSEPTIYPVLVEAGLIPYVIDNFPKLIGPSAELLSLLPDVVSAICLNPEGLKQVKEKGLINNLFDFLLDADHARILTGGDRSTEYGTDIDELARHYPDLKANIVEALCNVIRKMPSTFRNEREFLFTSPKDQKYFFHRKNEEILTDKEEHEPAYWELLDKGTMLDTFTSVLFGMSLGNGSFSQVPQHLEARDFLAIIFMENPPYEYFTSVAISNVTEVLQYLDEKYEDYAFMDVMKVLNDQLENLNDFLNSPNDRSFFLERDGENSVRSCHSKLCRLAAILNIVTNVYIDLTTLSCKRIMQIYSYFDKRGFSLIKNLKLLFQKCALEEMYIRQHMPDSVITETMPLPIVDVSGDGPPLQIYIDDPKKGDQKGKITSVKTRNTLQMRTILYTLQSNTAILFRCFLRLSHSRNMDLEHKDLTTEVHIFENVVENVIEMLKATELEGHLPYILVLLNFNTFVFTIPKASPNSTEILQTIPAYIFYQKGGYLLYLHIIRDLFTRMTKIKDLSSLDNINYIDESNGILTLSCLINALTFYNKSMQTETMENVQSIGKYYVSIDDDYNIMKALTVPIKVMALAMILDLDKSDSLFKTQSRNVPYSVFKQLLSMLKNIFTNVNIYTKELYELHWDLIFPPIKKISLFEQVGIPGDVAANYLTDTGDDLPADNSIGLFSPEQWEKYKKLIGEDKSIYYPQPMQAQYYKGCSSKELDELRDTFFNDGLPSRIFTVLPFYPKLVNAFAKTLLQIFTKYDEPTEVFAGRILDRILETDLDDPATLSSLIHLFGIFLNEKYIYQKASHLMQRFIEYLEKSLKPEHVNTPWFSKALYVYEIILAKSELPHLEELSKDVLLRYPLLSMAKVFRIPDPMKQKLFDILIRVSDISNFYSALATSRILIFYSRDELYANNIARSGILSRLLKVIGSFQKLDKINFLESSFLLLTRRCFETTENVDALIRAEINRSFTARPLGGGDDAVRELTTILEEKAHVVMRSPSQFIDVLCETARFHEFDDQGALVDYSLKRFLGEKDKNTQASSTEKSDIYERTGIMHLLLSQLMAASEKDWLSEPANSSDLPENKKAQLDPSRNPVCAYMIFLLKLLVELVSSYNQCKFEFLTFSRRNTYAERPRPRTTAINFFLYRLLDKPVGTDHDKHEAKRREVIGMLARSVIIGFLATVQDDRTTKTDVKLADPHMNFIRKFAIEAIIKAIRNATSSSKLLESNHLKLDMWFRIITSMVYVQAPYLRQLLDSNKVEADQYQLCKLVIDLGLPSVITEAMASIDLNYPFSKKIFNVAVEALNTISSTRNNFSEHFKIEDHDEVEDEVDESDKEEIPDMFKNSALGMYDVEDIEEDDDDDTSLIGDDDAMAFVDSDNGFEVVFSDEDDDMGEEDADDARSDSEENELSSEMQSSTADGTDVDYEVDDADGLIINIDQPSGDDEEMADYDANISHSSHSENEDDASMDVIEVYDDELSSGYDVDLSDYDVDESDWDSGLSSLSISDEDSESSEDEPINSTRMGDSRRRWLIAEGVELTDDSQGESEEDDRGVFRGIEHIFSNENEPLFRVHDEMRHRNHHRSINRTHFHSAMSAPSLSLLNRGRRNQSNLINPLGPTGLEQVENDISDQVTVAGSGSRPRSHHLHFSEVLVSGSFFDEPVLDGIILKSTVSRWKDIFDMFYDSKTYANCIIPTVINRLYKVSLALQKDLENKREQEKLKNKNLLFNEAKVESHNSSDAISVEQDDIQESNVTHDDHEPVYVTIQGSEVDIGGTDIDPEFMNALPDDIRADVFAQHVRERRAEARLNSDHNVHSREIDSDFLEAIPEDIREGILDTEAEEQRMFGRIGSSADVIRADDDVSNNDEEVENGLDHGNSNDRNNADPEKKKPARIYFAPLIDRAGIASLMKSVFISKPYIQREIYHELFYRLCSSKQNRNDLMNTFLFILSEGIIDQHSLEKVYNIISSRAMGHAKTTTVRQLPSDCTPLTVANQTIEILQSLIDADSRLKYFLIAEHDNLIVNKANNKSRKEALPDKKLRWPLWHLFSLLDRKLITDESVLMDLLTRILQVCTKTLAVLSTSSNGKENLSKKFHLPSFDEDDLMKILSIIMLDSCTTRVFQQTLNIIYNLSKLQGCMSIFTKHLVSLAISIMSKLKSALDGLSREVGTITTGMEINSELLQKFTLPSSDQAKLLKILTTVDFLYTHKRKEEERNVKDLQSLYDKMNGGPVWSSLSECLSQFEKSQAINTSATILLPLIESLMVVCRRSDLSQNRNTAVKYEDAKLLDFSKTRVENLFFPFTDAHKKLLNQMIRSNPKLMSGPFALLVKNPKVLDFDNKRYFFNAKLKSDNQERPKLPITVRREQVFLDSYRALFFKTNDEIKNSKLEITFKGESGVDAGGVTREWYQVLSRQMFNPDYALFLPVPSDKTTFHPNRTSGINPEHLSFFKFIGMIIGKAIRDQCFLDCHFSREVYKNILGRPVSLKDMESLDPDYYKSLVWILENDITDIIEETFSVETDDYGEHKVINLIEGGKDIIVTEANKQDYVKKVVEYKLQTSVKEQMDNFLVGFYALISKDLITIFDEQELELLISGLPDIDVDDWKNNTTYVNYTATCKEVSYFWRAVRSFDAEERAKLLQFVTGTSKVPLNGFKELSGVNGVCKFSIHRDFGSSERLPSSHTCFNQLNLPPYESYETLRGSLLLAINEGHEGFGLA
UniProt P53221: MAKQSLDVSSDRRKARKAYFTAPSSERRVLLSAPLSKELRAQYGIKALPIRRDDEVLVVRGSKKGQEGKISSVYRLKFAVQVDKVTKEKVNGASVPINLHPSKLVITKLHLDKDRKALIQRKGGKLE

Target: 3×HA-tagged Tom1 (^3×HATom1) (S. cerevisiae) (UniProt Q03280)
Assay: affinity purification with mass spectrometry; cells expressing untagged Tom1 or ^3×HATom1 treated with bortezomib for 1 hr; total cell extracts adsorbed to HA resin, bound fractions analysed by mass spectrometry

With Rpl26b (from UniProt P53221 1-127) as the substance, how does the binding read?
Its binding is “binds”.
